No constants are given. Whether binding was seen depends on the method and setting. Binding seen in cells or lysates may run through a third protein. Some entries that bind do so weakly or less than the wild type. Sequences can lack the tags named with a protein.
T1: CLTA (clathrin light chain A), taken as the GFP11-tagged bait of the clathrin pull-down (human) (UniProt P09496)
T1 sequence: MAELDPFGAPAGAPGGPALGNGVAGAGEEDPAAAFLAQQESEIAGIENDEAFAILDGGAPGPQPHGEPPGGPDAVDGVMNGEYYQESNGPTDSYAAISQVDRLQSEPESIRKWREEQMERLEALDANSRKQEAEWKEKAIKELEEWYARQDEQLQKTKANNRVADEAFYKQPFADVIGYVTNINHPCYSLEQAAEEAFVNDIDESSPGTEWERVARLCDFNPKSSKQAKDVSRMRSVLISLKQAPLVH

Amino acid sequences for entries named in this document (tags omitted).
UniProt Q00610: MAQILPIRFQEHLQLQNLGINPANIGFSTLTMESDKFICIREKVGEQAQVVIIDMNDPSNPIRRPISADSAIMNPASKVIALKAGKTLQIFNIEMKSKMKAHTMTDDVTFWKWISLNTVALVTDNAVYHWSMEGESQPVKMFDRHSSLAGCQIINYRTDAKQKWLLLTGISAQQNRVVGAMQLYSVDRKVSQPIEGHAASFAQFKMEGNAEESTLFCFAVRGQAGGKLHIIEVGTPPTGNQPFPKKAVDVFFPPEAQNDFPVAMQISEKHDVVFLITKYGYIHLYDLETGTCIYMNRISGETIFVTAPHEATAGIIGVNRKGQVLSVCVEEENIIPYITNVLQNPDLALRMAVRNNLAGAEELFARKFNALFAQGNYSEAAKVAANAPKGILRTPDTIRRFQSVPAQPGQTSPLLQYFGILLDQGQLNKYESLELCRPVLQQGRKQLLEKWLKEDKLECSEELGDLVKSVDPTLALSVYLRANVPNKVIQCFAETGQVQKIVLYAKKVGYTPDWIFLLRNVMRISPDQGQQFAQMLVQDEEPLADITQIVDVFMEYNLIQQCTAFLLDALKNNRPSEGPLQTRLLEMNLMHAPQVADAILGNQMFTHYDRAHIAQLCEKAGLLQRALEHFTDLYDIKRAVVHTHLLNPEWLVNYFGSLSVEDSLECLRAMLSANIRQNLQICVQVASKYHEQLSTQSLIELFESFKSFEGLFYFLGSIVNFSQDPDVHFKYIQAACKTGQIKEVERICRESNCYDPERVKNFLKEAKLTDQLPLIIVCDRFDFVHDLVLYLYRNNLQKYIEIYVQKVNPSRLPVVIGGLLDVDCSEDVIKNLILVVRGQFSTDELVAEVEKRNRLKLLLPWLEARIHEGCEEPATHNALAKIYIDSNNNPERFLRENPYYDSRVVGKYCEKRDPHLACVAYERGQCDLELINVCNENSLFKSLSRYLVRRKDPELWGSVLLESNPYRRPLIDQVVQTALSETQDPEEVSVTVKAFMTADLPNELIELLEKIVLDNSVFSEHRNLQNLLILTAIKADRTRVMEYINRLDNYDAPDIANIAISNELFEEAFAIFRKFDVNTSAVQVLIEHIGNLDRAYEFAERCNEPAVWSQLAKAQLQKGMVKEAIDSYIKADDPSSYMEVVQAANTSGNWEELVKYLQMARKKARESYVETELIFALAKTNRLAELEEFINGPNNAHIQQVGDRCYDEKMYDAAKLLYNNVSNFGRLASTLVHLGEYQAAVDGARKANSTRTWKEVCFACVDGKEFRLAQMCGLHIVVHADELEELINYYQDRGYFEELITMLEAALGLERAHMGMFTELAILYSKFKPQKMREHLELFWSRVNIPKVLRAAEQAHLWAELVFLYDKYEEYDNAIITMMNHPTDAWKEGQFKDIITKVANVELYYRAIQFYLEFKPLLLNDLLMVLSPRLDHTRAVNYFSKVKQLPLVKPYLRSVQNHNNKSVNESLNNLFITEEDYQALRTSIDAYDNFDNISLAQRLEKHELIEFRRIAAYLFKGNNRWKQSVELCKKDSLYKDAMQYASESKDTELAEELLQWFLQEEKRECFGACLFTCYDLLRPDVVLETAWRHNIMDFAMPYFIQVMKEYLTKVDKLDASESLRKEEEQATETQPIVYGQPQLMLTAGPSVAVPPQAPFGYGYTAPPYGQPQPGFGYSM

T2: SPTLC1, taken as the GFP11-tagged bait of the SPOTS pull-down (human) (UniProt O15269)
T2 sequence: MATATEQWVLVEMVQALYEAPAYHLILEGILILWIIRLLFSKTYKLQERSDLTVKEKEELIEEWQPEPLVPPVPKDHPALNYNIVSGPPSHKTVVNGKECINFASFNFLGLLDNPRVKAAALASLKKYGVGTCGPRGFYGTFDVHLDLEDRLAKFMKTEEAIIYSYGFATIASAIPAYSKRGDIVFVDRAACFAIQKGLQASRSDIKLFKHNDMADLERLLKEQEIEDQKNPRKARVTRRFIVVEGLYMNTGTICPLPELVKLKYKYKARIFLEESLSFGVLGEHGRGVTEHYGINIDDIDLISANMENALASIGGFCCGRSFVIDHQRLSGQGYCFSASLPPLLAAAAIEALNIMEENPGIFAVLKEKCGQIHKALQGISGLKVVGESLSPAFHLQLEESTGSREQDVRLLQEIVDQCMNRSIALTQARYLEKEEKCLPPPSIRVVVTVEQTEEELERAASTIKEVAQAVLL

B1: SPTLC2 (protein, UniProt O15270 1-562)
chain: MRPEPGGCCCRRTVRANGCVANGEVRNGYVRSSAAAAAAAAAGQIHHVTQNGGLYKRPFNEAFEETPMLVAVLTYVGYGVLTLFGYLRDFLRYWRIEKCHHATEREEQKDFVSLYQDFENFYTRNLYMRIRDNWNRPICSVPGARVDIMERQSHDYNWSFKYTGNIIKGVINMGSYNYLGFARNTGSCQEAAAKVLEEYGAGVCSTRQEIGNLDKHEELEELVARFLGVEAAMAYGMGFATNSMNIPALVGKGCLILSDELNHASLVLGARLSGATIRIFKHNNMQSLEKLLKDAIVYGQPRTRRPWKKILILVEGIYSMEGSIVRLPEVIALKKKYKAYLYLDEAHSIGALGPTGRGVVEYFGLDPEDVDVMMGTFTKSFGASGGYIGGKKELIDYLRTHSHSAVYATSLSPPVVEQIITSMKCIMGQDGTSLGKECVQQLAENTRYFRRRLKEMGFIIYGNEDSPVVPLMLYMPAKIGAFGREMLKRNIGVVVVGFPATPIIESRARFCLSAAHTKEILDTALKEIDEVGDLLQLKYSRHRLVPLLDRPFDETTYEETED

Assays:
[1] = target: T1, CLTA (clathrin light chain A), taken as the GFP11-tagged bait of the clathrin pull-down (human); assay: co-IP
[2] = target: T2, SPTLC1, taken as the GFP11-tagged bait of the SPOTS pull-down (human); assay: co-IP

binding [1]	binding [2]	Molecule
binds	–	CLTC (from UniProt Q00610 1-1675)
–	binds	B1
